The list shows a part of the results. This data set is noisy: repeats of one test often differ as much as different tests do.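 In a drug-repurposing library screen, luminescence reads luciferase driven by eight TEAD-binding elements, stably integrated into human kidney-derived cells. Compounds scoring over five robust Z scores above the plate mean are called hits.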

This test deals with HEK293A TEAD-LUC reporter. Briefly: TEAD-luciferase reporter activity (YAP activation), robust Z score vs plate; higher = stronger YAP/TEAD activation. Particulars: 24 h. In general terms: In a reporter assay the amount or activity of a reporter protein is the signal.

For the molecule `O=C(C1CCCN1C(=O)c1cccc(Cl)c1)N1CCC(c2ccccc2)CC1` (configuration not stated), the TEAD-luciferase reporter activity reads like this: (compound concentration: 200 nM) inactive: -0.431; (compound concentration: 10 uM) inactive: -1.48.

Turning to `CC(=O)COC(=O)/C=C(C)/C=C/C=C(C)/C=C/C1=C(C)CCCC1(C)C`, the TEAD-luciferase reporter activity is, setting by setting: (compound concentration: 200 nM) inactive: -1.86; (compound concentration: 2 uM) inactive: 0.746; (compound concentration: 10 uM) inactive: -0.984.

As for `CNC(=O)Nc1c(OCCN2CCCCC2)c(OC)c2occc2c1OC` [murocainide], the TEAD-luciferase reporter activity reads like this: (compound concentration: 200 nM) inactive: -0.93; (compound concentration: 2 uM) inactive: 0.00103; (compound concentration: 10 uM) inactive: -0.942.

As for `C[C@H](NC(=O)Cc1ccccc1)C(=O)Nc1ccc(C2S/C(=N\c3cccc(F)c3)N(Cc3ccco3)C2=O)cc1` (some centres not stated), the TEAD-luciferase reporter activity (compound concentration: 200 nM) is inactive: 4.12, the TEAD-luciferase reporter activity (compound concentration: 2 uM) was inactive: -0.528 and the TEAD-luciferase reporter activity (compound concentration: 10 uM) was inactive: 0.596.

`CO/N=C(/C(=O)N[C@@H]1C(=O)N2C(C(=O)O)=C(CSc3nnnn3C)CS[C@H]12)c1csc(N)n1` [cefmenoxime]: the TEAD-luciferase reporter activity was inactive: -0.263 (compound concentration: 200 nM), inactive: -2.18 (compound concentration: 2 uM) and inactive: 2.25 (compound concentration: 10 uM).

As for `COc1ccc2c(N3CCc4ccccc4C3)ncnc2c1`, the TEAD-luciferase reporter activity reads like this: (compound concentration: 200 nM) inactive: -0.247; (compound concentration: 2 uM) inactive: 3.2; (compound concentration: 10 uM) inactive: 3.64.

Consider `NCCCCC(NC(CCc1ccccc1)C(=O)O)C(=O)N1CCCC1C(=O)O` (configuration not stated) [lisinopril], for which the TEAD-luciferase reporter activity is, setting by setting: (compound concentration: 200 nM) inactive: -0.665; (compound concentration: 10 uM) inactive: 1.5.

Regarding `FC(F)(F)c1ccc(/C=C/c2nc(COc3ccc(CCCCn4ccnn4)cc3)co2)cc1` [Mubritinib (TAK 165)], the TEAD-luciferase reporter activity is, setting by setting: (compound concentration: 200 nM) inactive: -1.05; (compound concentration: 10 uM) inactive: -2.04.

In the case of `FC(F)(F)c1ccc(/C=C/c2nc(COc3ccc(CCCCn4ccnn4)cc3)co2)cc1` [Mubritinib], the TEAD-luciferase reporter activity (compound concentration: 2 uM) was inactive: -2.2.

As to `CN1C2CCCC1CC(NC(=O)c1n[nH]c3ccccc13)C2` (configuration not stated) [Granisetron impurity B], the TEAD-luciferase reporter activity (compound concentration: 2 uM) was inactive: -2.34.

For the molecule `CC(=O)O[C@@]12CO[C@@H]1C[C@H](O)[C@@]1(C)C(=O)[C@H](O)C3=C(C)[C@@H](OC(=O)[C@H](O)[C@@H](NC(=O)OC(C)(C)C)c4ccccc4)C[C@@](O)([C@@H](OC(=O)c4ccccc4)C12)C3(C)C` (some centres not stated) [Docetaxel], the TEAD-luciferase reporter activity was inactive: -1.82 (compound concentration: 200 nM), inactive: -0.502 (compound concentration: 2 uM) and inactive: 1.23 (compound concentration: 10 uM).

For the molecule `CCC(=O)O[C@@H](O[P@](=O)(CCCCc1ccccc1)CC(=O)N1C[C@H](C2CCCCC2)C[C@H]1C(=O)[O-])C(C)C` [fosinopril], the TEAD-luciferase reporter activity (compound concentration: 10 uM) was inactive: 1.19.

Regarding `CCC(C)(Oc1ccc(Cc2ccc(Cl)cc2)cc1)C(=O)OCc1cccnc1` (configuration not stated), the TEAD-luciferase reporter activity by setting is: (compound concentration: 200 nM) inactive: -0.417; (compound concentration: 2 uM) inactive: -1.55; (compound concentration: 10 uM) inactive: -0.71.

Turning to `CCOC1(C2=NCCN2)COc2ccccc2O1` (configuration not stated) [Ethoxy-idazoxan], the TEAD-luciferase reporter activity was inactive: -0.724 (compound concentration: 200 nM), inactive: -1.1 (compound concentration: 2 uM) and inactive: -0.0282 (compound concentration: 10 uM).

In the case of `Oc1ncc(F)c(O)n1` [5-Fluorouracil], the TEAD-luciferase reporter activity is, setting by setting: (compound concentration: 200 nM) inactive: 0.296; (compound concentration: 10 uM) inactive: -0.878.

On to `Oc1ncc(F)c(O)n1` [5-fluorouracil SR], for which, where the note is “compound concentration: 2 uM”, the TEAD-luciferase reporter activity is inactive: -1.33.

As for `COc1cc(OC)c2c(O)c3c(c(-c4c5c(c(O)c6c(OC)cc(OC)cc46)CO[C@@H](C)[C@H]5O)c2c1)[C@H](O)[C@H](C)OC3`, the TEAD-luciferase reporter activity is inactive: -1.87 (compound concentration: 200 nM), inactive: -1.3 (compound concentration: 2 uM) and inactive: 2.6 (compound concentration: 10 uM).

With `Cc1nn(C)c2nc(NNC(=O)Nc3cc(Cl)nc(Cl)c3)cc(C(C)C)c12`, the TEAD-luciferase reporter activity was inactive: 0.388 (compound concentration: 200 nM), inactive: -0.287 (compound concentration: 2 uM) and inactive: -1.81 (compound concentration: 10 uM).

For the molecule `OC[C@H]1O[C@@H](S[C@@H]2O[C@H](CO)[C@H](O)[C@H](n3cc(-c4cccc(F)c4)nn3)[C@H]2O)[C@H](O)[C@@H](n2cc(-c3cccc(F)c3)nn2)[C@H]1O`, the TEAD-luciferase reporter activity runs as follows: (compound concentration: 200 nM) inactive: 3.15; (compound concentration: 2 uM) inactive: -0.571; (compound concentration: 10 uM) active: 13.5.

With `CN(C)c1ncnc2c1ncn2C1OC(CO)C(O)C1O` (configuration not stated), the TEAD-luciferase reporter activity by setting is: (compound concentration: 200 nM) inactive: -1.3; (compound concentration: 2 uM) inactive: 0.391; (compound concentration: 10 uM) inactive: -0.852.

As for `CCOc1c(N2CCOCC2)cnn(C)c1=O` [emorfazone], the TEAD-luciferase reporter activity reads like this: (compound concentration: 200 nM) inactive: -1.17; (compound concentration: 2 uM) inactive: -0.891; (compound concentration: 10 uM) inactive: 2.26.

As for `O=C(O)Cc1cccc2c1Cc1c-2[nH]c(=O)c2nc(C(=O)O)cn12`, the TEAD-luciferase reporter activity was inactive: 0.305 (compound concentration: 200 nM), inactive: -0.0627 (compound concentration: 2 uM) and inactive: 0.597 (compound concentration: 10 uM).

Take `COCC(=O)NC1CCCN(c2nc3ncccc3o2)C1` (configuration not stated): the TEAD-luciferase reporter activity runs as follows: (compound concentration: 200 nM) inactive: 1.54; (compound concentration: 10 uM) inactive: 0.836.

For `COC(=O)C1=C(C)NC(C)=C(C(=O)OCCCCNC[C@@H](O)COc2ccccc2)C1c1cccc([N+](=O)[O-])c1` (some centres not stated), the TEAD-luciferase reporter activity (compound concentration: 200 nM) was inactive: -0.768, the TEAD-luciferase reporter activity (compound concentration: 2 uM) was inactive: -0.869 and the TEAD-luciferase reporter activity (compound concentration: 10 uM) was inactive: -0.35.

Consider `CCc1oc2cc(S(=O)(=O)N(C)C)ccc2c1C(=O)c1cc(Br)c(O)c(Br)c1`, for which the TEAD-luciferase reporter activity is inactive: -0.782 (compound concentration: 200 nM), inactive: -1.13 (compound concentration: 2 uM) and inactive: -1.79 (compound concentration: 10 uM).

Take `CCOC(=O)c1ccc(NC(=O)/C=C(C)/C=C/C=C(C)/C=C/C2=C(C)CCCC2(C)C)cc1`: the TEAD-luciferase reporter activity by setting is: (compound concentration: 200 nM) inactive: -2.05; (compound concentration: 2 uM) inactive: -0.385; (compound concentration: 10 uM) inactive: 2.57.

As to `COCCC(CC1(C(=O)NCCCc2ccc(Cl)cc2)CCCC1)C(=O)O` (configuration not stated), the TEAD-luciferase reporter activity runs as follows: (compound concentration: 200 nM) inactive: -1.63; (compound concentration: 2 uM) inactive: 0.76; (compound concentration: 10 uM) inactive: 1.67.

For the molecule `CC(C)CC(N)C(=O)NC(Cc1c[nH]c2ccccc12)C(=O)O` (configuration not stated), the TEAD-luciferase reporter activity is inactive: -1.31 (compound concentration: 200 nM) and inactive: -1.13 (compound concentration: 10 uM).

Consider `COC(=O)/C(=C/c1cc(OC)cc(OC)c1)c1ccc(Oc2ccc(CC3SC(=O)NC3=O)cc2)cc1` (configuration not stated), for which the TEAD-luciferase reporter activity (compound concentration: 200 nM) was inactive: -1.62, the TEAD-luciferase reporter activity (compound concentration: 2 uM) is inactive: -1.3 and the TEAD-luciferase reporter activity (compound concentration: 10 uM) was inactive: -0.962.

Turning to `CN(Cc1cccc2ccccc12)C1CCc2ccccc21` (configuration not stated), the TEAD-luciferase reporter activity by setting is: (compound concentration: 200 nM) inactive: 0.34; (compound concentration: 10 uM) inactive: 1.69.

In the case of `O=C(Nc1c(Cl)c[n+]([O-])cc1Cl)c1ccc(OC(F)F)c2oc3ccncc3c12` [Revamilast], the TEAD-luciferase reporter activity was inactive: 4.34 (compound concentration: 200 nM), inactive: -0.722 (compound concentration: 2 uM) and inactive: 1.09 (compound concentration: 10 uM).

Regarding `CN1CCCc2cccc(OCC3CNCCO3)c21` (configuration not stated), the TEAD-luciferase reporter activity runs as follows: (compound concentration: 200 nM) inactive: 0.284; (compound concentration: 2 uM) inactive: -1.25; (compound concentration: 10 uM) inactive: -0.0696.

On to `CS(=O)(=O)OC[C@H](O)[C@@H](O)COS(C)(=O)=O` [Treosulfan], for which the TEAD-luciferase reporter activity (compound concentration: 200 nM) was inactive: -0.711, the TEAD-luciferase reporter activity (compound concentration: 2 uM) was inactive: -0.545 and the TEAD-luciferase reporter activity (compound concentration: 10 uM) is inactive: 0.0985.

In the case of `CCC(=O)N1Cc2ccccc2CC2(CCCN2Cc2ccccc2)C1` (configuration not stated), the TEAD-luciferase reporter activity runs as follows: (compound concentration: 200 nM) inactive: 2.18; (compound concentration: 10 uM) inactive: -0.125.

Take `CC(Cc1ccccc1)NN` (configuration not stated): the TEAD-luciferase reporter activity is inactive: -2.61 (compound concentration: 200 nM), inactive: -1.69 (compound concentration: 2 uM) and inactive: -1.2 (compound concentration: 10 uM).

With `CC(=O)N(c1onc(C)c1C)S(=O)(=O)c1ccc(N)cc1`, the TEAD-luciferase reporter activity is inactive: -0.0995 (compound concentration: 200 nM), inactive: 0.37 (compound concentration: 2 uM) and inactive: -0.00801 (compound concentration: 10 uM).

Values taken from the supplement of paper PMC10735217.
